PubChem BioAssay AID1508597 – Cure First – 2020

Screen: 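Genes whose silencing sensitises or protects ovarian cancer cells against rucaparib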 (primary screen)
System: human ovarian carcinoma lines grown from tumours: OCI-P5x (papillary serous) and OCI-C5x (clear cell)
Knock-down reagent: siRNA pool against human genes, 1.25 pmol siRNA per well
Timing: 72 h or 96 h, depending on the cell culture
Challenge: rucaparib 20 µM (about IC30) or vehicle, present until read-out
Measurement: 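ATP luminescence measured at 72 or 96 h according to the culture, then normalised and expressed as percent viability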
Scale: viability, normalised: higher = more viable cells remaining
Rule for the call: 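Active when normalised viability falls below 80 percent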
Meaning of the calls: active = viability under 80%; inactive = viability 80% or more
This is a random part of about 2,100 reagents tested. 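Calls flag viability under 80% in either arm, not effects specific to rucaparib; the reference for percent is not stated.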 Not stated in the record: the 100% reference.

Which result is listed for CDK20 (GeneID 23552), rucaparib or vehicle Rucaparib, cell line OCI-C5x (clear cell), technical replicate 1?
viability, normalised (%): 42.3; Outcome: active

With CDK20 (GeneID 23552), rucaparib or vehicle Rucaparib, cell line OCI-C5x (clear cell), technical replicate 2, what does the deposit list?
viability, normalised (%): 49.3; Outcome: active

With CDK20 (GeneID 23552), rucaparib or vehicle Rucaparib, cell line OCI-C5x (clear cell), technical replicate 3, what was measured?
viability, normalised (%): 56.9; Outcome: active

For CDK20 (GeneID 23552), rucaparib or vehicle Rucaparib, cell line OCI-P5x (serous), technical replicate 1, how do the results read?
viability, normalised (%): 91.5; Outcome: inactive

What did the screen give for CDK20 (GeneID 23552), rucaparib or vehicle Rucaparib, cell line OCI-P5x (serous), technical replicate 2?
viability, normalised (%): 57.8; Outcome: active

Which result is listed for CDK20 (GeneID 23552), rucaparib or vehicle Rucaparib, cell line OCI-P5x (serous), technical replicate 3?
viability, normalised (%): 86.5; Outcome: inactive

For CDK20 (GeneID 23552), rucaparib or vehicle Vehicle, cell line OCI-C5x (clear cell), technical replicate 1, how do the results read?
viability, normalised (%): 45; Outcome: active

For CDK20 (GeneID 23552), rucaparib or vehicle Vehicle, cell line OCI-C5x (clear cell), technical replicate 2, how do the results read?
viability, normalised (%): 44.9; Outcome: active

With CDK20 (GeneID 23552), rucaparib or vehicle Vehicle, cell line OCI-C5x (clear cell), technical replicate 3, how do the results read?
viability, normalised (%): 42.5; Outcome: active

With CDK20 (GeneID 23552), rucaparib or vehicle Vehicle, cell line OCI-P5x (serous), technical replicate 1, what was measured?
viability, normalised (%): 52.7; Outcome: active

With CDK20 (GeneID 23552), rucaparib or vehicle Vehicle, cell line OCI-P5x (serous), technical replicate 2, how do the results read?
viability, normalised (%): 67.6; Outcome: active

With CDK20 (GeneID 23552), rucaparib or vehicle Vehicle, cell line OCI-P5x (serous), technical replicate 3, what was measured?
viability, normalised (%): 62.2; Outcome: active

3 entries from above, sorted by “viability, normalised (%)”, high to low:
CDK20 (GeneID 23552), rucaparib or vehicle Vehicle, cell line OCI-P5x (serous), technical replicate 1 → viability, normalised (%): 52.7; Outcome: active
CDK20 (GeneID 23552), rucaparib or vehicle Vehicle, cell line OCI-C5x (clear cell), technical replicate 2 → viability, normalised (%): 44.9; Outcome: active
CDK20 (GeneID 23552), rucaparib or vehicle Vehicle, cell line OCI-C5x (clear cell), technical replicate 3 → viability, normalised (%): 42.5; Outcome: active

Next reagents follow:
For NONO (GeneID 4841), rucaparib or vehicle Rucaparib, cell line OCI-C5x (clear cell), technical replicate 1, what was measured?
viability, normalised (%): 44.8; Outcome: active

For NONO (GeneID 4841), rucaparib or vehicle Rucaparib, cell line OCI-C5x (clear cell), technical replicate 2, how do the results read?
viability, normalised (%): 39.7; Outcome: active

How did the screen score NONO (GeneID 4841), rucaparib or vehicle Rucaparib, cell line OCI-C5x (clear cell), technical replicate 3?
viability, normalised (%): 57.8; Outcome: active

With NONO (GeneID 4841), rucaparib or vehicle Rucaparib, cell line OCI-P5x (serous), technical replicate 1, what was measured?
viability, normalised (%): 85.5; Outcome: inactive

For NONO (GeneID 4841), rucaparib or vehicle Rucaparib, cell line OCI-P5x (serous), technical replicate 2, how do the results read?
viability, normalised (%): 95.5; Outcome: inactive

For NONO (GeneID 4841), rucaparib or vehicle Rucaparib, cell line OCI-P5x (serous), technical replicate 3, what does the deposit list?
viability, normalised (%): 81.1; Outcome: inactive

For NONO (GeneID 4841), rucaparib or vehicle Vehicle, cell line OCI-C5x (clear cell), technical replicate 1, what was measured?
viability, normalised (%): 38.1; Outcome: active

For NONO (GeneID 4841), rucaparib or vehicle Vehicle, cell line OCI-C5x (clear cell), technical replicate 2, what was measured?
viability, normalised (%): 37.7; Outcome: active

With NONO (GeneID 4841), rucaparib or vehicle Vehicle, cell line OCI-C5x (clear cell), technical replicate 3, what does the deposit list?
viability, normalised (%): 45.6; Outcome: active

What did the screen give for NONO (GeneID 4841), rucaparib or vehicle Vehicle, cell line OCI-P5x (serous), technical replicate 1?
viability, normalised (%): 59.8; Outcome: active

Which result is listed for NONO (GeneID 4841), rucaparib or vehicle Vehicle, cell line OCI-P5x (serous), technical replicate 2?
viability, normalised (%): 81.8; Outcome: inactive

With NONO (GeneID 4841), rucaparib or vehicle Vehicle, cell line OCI-P5x (serous), technical replicate 3, what does the deposit list?
viability, normalised (%): 79; Outcome: active

How did the screen score MAP2K4 (GeneID 6416), rucaparib or vehicle Rucaparib, cell line OCI-C5x (clear cell), technical replicate 1?
viability, normalised (%): 51.5; Outcome: active

What did the screen give for MAP2K4 (GeneID 6416), rucaparib or vehicle Rucaparib, cell line OCI-C5x (clear cell), technical replicate 2?
viability, normalised (%): 47; Outcome: active

What is on record for MAP2K4 (GeneID 6416), rucaparib or vehicle Rucaparib, cell line OCI-C5x (clear cell), technical replicate 3?
viability, normalised (%): 47.9; Outcome: active

For MAP2K4 (GeneID 6416), rucaparib or vehicle Rucaparib, cell line OCI-P5x (serous), technical replicate 1, what was measured?
viability, normalised (%): 85.6; Outcome: inactive

What did the screen give for MAP2K4 (GeneID 6416), rucaparib or vehicle Rucaparib, cell line OCI-P5x (serous), technical replicate 2?
viability, normalised (%): 84.1; Outcome: inactive

For MAP2K4 (GeneID 6416), rucaparib or vehicle Rucaparib, cell line OCI-P5x (serous), technical replicate 3, how do the results read?
viability, normalised (%): 77.8; Outcome: active

What did the screen give for MAP2K4 (GeneID 6416), rucaparib or vehicle Vehicle, cell line OCI-C5x (clear cell), technical replicate 1?
viability, normalised (%): 72.2; Outcome: active

What did the screen give for MAP2K4 (GeneID 6416), rucaparib or vehicle Vehicle, cell line OCI-C5x (clear cell), technical replicate 2?
viability, normalised (%): 41.6; Outcome: active

How did the screen score MAP2K4 (GeneID 6416), rucaparib or vehicle Vehicle, cell line OCI-C5x (clear cell), technical replicate 3?
viability, normalised (%): 60.1; Outcome: active

With MAP2K4 (GeneID 6416), rucaparib or vehicle Vehicle, cell line OCI-P5x (serous), technical replicate 1, how do the results read?
viability, normalised (%): 81.9; Outcome: inactive

What is on record for MAP2K4 (GeneID 6416), rucaparib or vehicle Vehicle, cell line OCI-P5x (serous), technical replicate 2?
viability, normalised (%): 93.2; Outcome: inactive

For MAP2K4 (GeneID 6416), rucaparib or vehicle Vehicle, cell line OCI-P5x (serous), technical replicate 3, what was measured?
viability, normalised (%): 95.1; Outcome: inactive
